Measurements from patent publication US20230174526A1, “BENZOTHIAZOLYL BIARYL COMPOUND, AND PREPARATION METHOD AND USE” (SHANGHAI RINGENE BIOPHARMA CO., LTD., priority 2020, published 2023).
Some of these results come from one statement about several compounds together.

System: transplanted tumor of MiaPaca-2, NCI-H358 tumor cells
Test: Growth inhibition of transplanted tumor in nude mice
Assay type: in vivo
Conditions: tumor model not specified
Procedure: The tumor tissues in the peak growth period were cut into 1.5 mm^3 and inoculated into the right axillary subcutis of nude mice under aseptic conditions. The subcutaneous transplanted tumors of nude mice were measured by vernier calipers for the diameter of the transplanted tumors, and the animals were randomly grouped when the average volume of the tumors reached about 130 mm^3.The example compound (injection water containing 1% Tween 80 was prepared to the desired concentration and then left to be used) was administered orally at the given dose daily for three weeks, and the solvent control group was given an equal amount of solvent. The transplanted tumor diameter was measured twice a week throughout the experiment, and the mice were weighed at the same time.The tumor volume (TV) was calculated by the formula: TV = ½×a×b^2, where a and b are the length and width, respectively.

[1] = 30 mg/kg orally once daily for 21 days

| SMILES | tumor inhibition rate (10 mg/kg orally once daily for 21 days) | tumor inhibition rate [1] |
| --- | --- | --- |
| C=CC(=O)N1CCN(c2c(C#N)c(OC[C@@H]3CCCN3C)nc3c(F)c(-c4ccc(F)c5sc(N)nc45)c(Cl)cc23)CC1 [Example 3, 4-(4-Piperazinylacryloylpiperazin-1-yl)-7-(2-Amino-7-Fluorobenzo[d]Thiazol-4-yl)-6-Chloro-8-Fluoro-2-(((S)-1-Methylpyrrolidin-2-Yl)Methoxy)Quinoline-3-Cyano] | greater than 60% | greater than 60% |
| C=CC(=O)N1CCN(c2c(C#N)cnc3c(F)c(-c4ccc(F)c5sc(N)nc45)c(Cl)cc23)CC1 [Example 8] | – | greater than 60% |
